PMC11035800
Substitutions are numbered along the chain they refer to. No constants are given. Whether binding was seen depends on the method and setting. In cells and extracts the contact can be indirect. Sequences can lack the tags named with a protein.

Sequences of proteins named here, by UniProt entry; tags and fusion partners are left off.
UniProt Q01196: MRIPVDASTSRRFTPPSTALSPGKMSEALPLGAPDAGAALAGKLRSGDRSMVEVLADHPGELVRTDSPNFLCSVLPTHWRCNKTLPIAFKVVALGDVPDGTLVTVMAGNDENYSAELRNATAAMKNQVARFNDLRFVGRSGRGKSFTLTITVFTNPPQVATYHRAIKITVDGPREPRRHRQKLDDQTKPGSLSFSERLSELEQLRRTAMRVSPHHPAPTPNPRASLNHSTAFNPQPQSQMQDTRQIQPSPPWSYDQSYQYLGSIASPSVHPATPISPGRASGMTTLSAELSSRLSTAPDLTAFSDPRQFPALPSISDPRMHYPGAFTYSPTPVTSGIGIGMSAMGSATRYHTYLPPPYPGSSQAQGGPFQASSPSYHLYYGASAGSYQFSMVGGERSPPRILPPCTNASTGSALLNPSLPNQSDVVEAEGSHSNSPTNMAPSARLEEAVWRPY

What was measured:
Assay in all cases: co-IP; anti-MYC beads on extracts of HEL cells overexpressing MYC-tagged CARM1 (WT, Y334F, Y149F, Y149F/Y334F); blot with anti-RUNX1 mouse antibody
[1] = biological target: T1, MYC-tagged CARM1 Y149F/Y334F overexpressed in HEL cells (UniProt Q86X55)
T1 sequence: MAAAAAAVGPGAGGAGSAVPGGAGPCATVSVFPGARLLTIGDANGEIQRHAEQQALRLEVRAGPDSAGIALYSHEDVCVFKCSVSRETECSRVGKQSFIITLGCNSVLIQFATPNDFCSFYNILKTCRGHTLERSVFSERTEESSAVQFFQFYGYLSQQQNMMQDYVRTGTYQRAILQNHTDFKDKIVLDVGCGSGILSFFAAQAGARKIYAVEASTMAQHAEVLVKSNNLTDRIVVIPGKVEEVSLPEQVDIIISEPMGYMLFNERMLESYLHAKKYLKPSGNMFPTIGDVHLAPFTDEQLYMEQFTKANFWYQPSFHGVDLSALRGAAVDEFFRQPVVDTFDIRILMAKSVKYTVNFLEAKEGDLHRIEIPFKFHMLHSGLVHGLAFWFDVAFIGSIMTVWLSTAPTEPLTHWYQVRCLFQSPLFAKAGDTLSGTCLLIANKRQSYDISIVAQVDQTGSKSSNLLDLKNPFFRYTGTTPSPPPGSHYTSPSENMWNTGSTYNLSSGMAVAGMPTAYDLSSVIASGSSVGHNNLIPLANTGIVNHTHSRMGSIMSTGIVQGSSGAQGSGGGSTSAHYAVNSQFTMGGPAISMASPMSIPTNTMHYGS

[2] = biological target: T2, MYC-tagged CARM1 Y334F overexpressed in HEL cells (UniProt Q86X55)
T2 sequence: T1 sequence with F149Y

[3] = biological target: T3, MYC-tagged CARM1 Y149F overexpressed in HEL cells (UniProt Q86X55)
T3 sequence: T1 sequence with F334Y

binding [1]: no binding | binding [2]: no binding | binding [3]: no binding
Substance: RUNX1 transcription factor, endogenous in HEL cells (from UniProt Q01196 1-453)
